Results of single-concentration screens

Mtb glucose medium: 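Growth of Mycobacterium tuberculosis over 3 days (7H9 medium with glucose and tyloxapol); the read-out is not stated. Tested at 50 µM. Direction is inferred from retests: higher values go with more growth inhibition. About 69,000 compounds were tested under these conditions; 1.1% (about 760) showed 50% or more at least once.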
Mtb cholesterol medium: 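Whole-cell growth test on Mycobacterium tuberculosis, read after 4 days in a medium based on cholesterol and the lipid DPPC; the read-out is not stated. Concentration: 50 µM. Direction is inferred from retests: higher values go with more growth inhibition. Of about 69,000 compounds tested this way, about 370 (0.54%) reached 50% or more in at least one test.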

Each number is a percent effect as filed. How 0% and 100% were set is not recorded. Most values in the screen are low, and negative values occur. This is an unselected part of the compounds tested. Two or more numbers in one place are separate tests of the same structure; such repeats can differ widely.

{"smiles": "CCOCC(O)CN1CCN(C(=O)c2ccsc2)CC1", "stereo": "stereo not shown", "Mtb glucose medium": "5.202 and 5.737", "Mtb cholesterol medium": 0.187}
{"smiles": "O=S(=O)(CCCS(=O)(=O)c1ccc2c(c1)OCCCO2)c1ccccc1", "Mtb glucose medium": -9.745, "Mtb cholesterol medium": -7.389}
{"smiles": "CN(C)C(=O)C1CCc2nnc(CNC(=O)c3ccc(Cl)cc3Cl)n21", "stereo": "stereo not shown", "Mtb glucose medium": -7.287, "Mtb cholesterol medium": 0.2104}
{"smiles": "Cc1cnn(C2CCCN(C(=O)c3ccc4c(c3)CCC4)C2)c1", "stereo": "stereo not shown", "Mtb glucose medium": 16.69, "Mtb cholesterol medium": 14.47}
{"smiles": "COC(=O)N1CCCC(C(=O)Nc2nc(C)c(SC)s2)C1", "stereo": "stereo not shown", "Mtb glucose medium": "1.466 and 15.24", "Mtb cholesterol medium": 7.555}
{"smiles": "Cc1ccc2nc3n(c2c1)[C@@H](CNCc1nccs1)COC3", "Mtb glucose medium": "25.13 and -9.943", "Mtb cholesterol medium": 21.65}
{"smiles": "Cc1ccsc1C(=O)NCc1ccnc(OCC(F)(F)F)c1", "Mtb glucose medium": 15.21, "Mtb cholesterol medium": 23.68}
{"smiles": "O=C(NC1CC1)[C@H]1CN(Cc2ccccc2)C[C@@H]1C(=O)c1ccccc1", "Mtb glucose medium": -13.36, "Mtb cholesterol medium": "-2.877 and 12.95"}
{"smiles": "Cc1cc(C(=O)N2CCCCC2c2nc3cc(F)ccc3[nH]2)no1", "stereo": "stereo not shown", "Mtb glucose medium": -45.45, "Mtb cholesterol medium": -15.65}
{"smiles": "COc1ccc(-c2cnc(CN(CC(N)=O)C3CCCC3)o2)cc1", "Mtb glucose medium": -25.25, "Mtb cholesterol medium": 8.264}
{"smiles": "O=c1[nH]c2nc(N3CCCCCC3)ncc2c(=O)n1-c1cccc(F)c1", "Mtb glucose medium": 17.2, "Mtb cholesterol medium": -24.76}
{"smiles": "CCCc1ncc(C(=O)c2ccc(OC)cc2)n1C", "Mtb glucose medium": "-18.92 and 1.131", "Mtb cholesterol medium": 2.95}
{"smiles": "Cc1ccc(NC(=O)NCC(c2cnn(C)c2)N(C)C)c(C)c1", "stereo": "stereo not shown", "Mtb glucose medium": 1.646, "Mtb cholesterol medium": -9.561}
{"smiles": "Cc1nc(NCCN2CCCC2=O)cc(C2CN(C(C)C)CCO2)n1", "stereo": "stereo not shown", "Mtb glucose medium": -2.235, "Mtb cholesterol medium": "-5.84 and -10.39"}
{"smiles": "Cc1nnc(CN2CCC(c3nc4cc(Cl)ccc4o3)CC2)n1C", "Mtb glucose medium": "-0.7291 and 9.123", "Mtb cholesterol medium": 12.44}
{"smiles": "Cc1cccc(N2CCC(N3CCCC4(CN(C)C(=O)O4)C3)CC2)c1C", "stereo": "stereo not shown", "Mtb glucose medium": 11.93, "Mtb cholesterol medium": 10.71}
{"smiles": "c1cnnc(N2CCCC2CNc2ncnc3c2CCC3)c1", "stereo": "stereo not shown", "Mtb glucose medium": -9.866, "Mtb cholesterol medium": -2.791}
{"smiles": "O=C(NCCc1ccc(I)s1)N1CCC1", "Mtb glucose medium": 24.55, "Mtb cholesterol medium": 10.04}
{"smiles": "Cc1ccccc1C(N)c1ccncc1.Cl", "stereo": "stereo not shown", "Mtb glucose medium": 15.73, "Mtb cholesterol medium": "9.812 and 4.487"}
{"smiles": "Cn1ncc2c1C(COCC1CC1)CN(Cc1ccoc1)C2", "stereo": "stereo not shown", "Mtb glucose medium": 10.61, "Mtb cholesterol medium": -11.57}
{"smiles": "CC(Cn1cccn1)NCc1ccc(Cl)s1", "stereo": "stereo not shown", "Mtb glucose medium": "-41.58 and 7.946", "Mtb cholesterol medium": 12.81}
{"smiles": "Cc1c(Br)cccc1C(=O)NCC1CCCNC1.Cl", "stereo": "stereo not shown", "Mtb glucose medium": "-1.299 and 25.1", "Mtb cholesterol medium": -2.715}
{"smiles": "CN(C)CCNc1cc(-c2ccccc2C(N)=O)c2cc[nH]c2n1", "Mtb glucose medium": -19.84, "Mtb cholesterol medium": -2.111}
{"smiles": "Cc1nn2cccnc2c1C(=O)NCc1ccnc(OCC2CC2)c1", "Mtb glucose medium": "-5.498 and -1.882", "Mtb cholesterol medium": -10.44}
{"smiles": "CN(C)CCCNC(=O)c1ccccc1NC(=O)c1ccccc1Cl", "Mtb glucose medium": -10.43, "Mtb cholesterol medium": 7.761}
{"smiles": "CCO[C@@H]1CCN(c2ccc(C)nn2)[C@@H]1Cc1cnn(C)c1", "Mtb glucose medium": 9.211, "Mtb cholesterol medium": "2.037 and 2.196"}
{"smiles": "CS(=O)(=O)c1snnc1C1CCN(Cc2cccc(O)c2)CC1", "Mtb glucose medium": -5.671, "Mtb cholesterol medium": -7.661}
{"smiles": "O=C(O)C(F)(F)F.[H][C@@]12OCCN(Cc3ccc(F)cc3)[C@@]1([H])CC[C@@H]2OC", "Mtb glucose medium": -50.51, "Mtb cholesterol medium": -12.08}
{"smiles": "O=C(O)C(F)(F)F.O=C(O)C(F)(F)F.[H][C@@]12COC[C@]1(CNS(=O)(=O)CC)CN(Cc1ccccn1)C2", "Mtb glucose medium": 16.44, "Mtb cholesterol medium": -10.15}
{"smiles": "O=C(NCC(O)c1cccs1)c1cccc(Cl)c1", "stereo": "stereo not shown", "Mtb glucose medium": "30.41 and 6.982", "Mtb cholesterol medium": 1.711}
{"smiles": "CC(C)c1nccn1CCC(=O)N1CCCCC1c1ccn[nH]1", "stereo": "stereo not shown", "Mtb glucose medium": -5.315, "Mtb cholesterol medium": "13.23 and -17.32"}
{"smiles": "Cc1nc(N(C)C)ncc1C(=O)N[C@H]1Cc2ccccc2[C@@H]1N", "Mtb glucose medium": -19.03, "Mtb cholesterol medium": -3.207}
{"smiles": "CCN1CCOC(CNCc2cnc(N(CC)CC)s2)C1", "stereo": "stereo not shown", "Mtb glucose medium": 2.968, "Mtb cholesterol medium": -9.743}
{"smiles": "CCNc1nc(C)c(C(=O)N(C)Cc2nc(CC)no2)s1", "Mtb glucose medium": 3.719, "Mtb cholesterol medium": -30.17}
{"smiles": "O=C(NCc1cccnc1)c1ccc2nccn2c1", "Mtb glucose medium": 2.224, "Mtb cholesterol medium": -1.054}
{"smiles": "CN(C)Cc1ccnc(C2CCCN2Cc2cc3ccccc3s2)n1", "stereo": "stereo not shown", "Mtb glucose medium": 33.22, "Mtb cholesterol medium": 9.277}
{"smiles": "COCC1CN(S(=O)(=O)c2cccc(F)c2)Cc2nccn2C1", "stereo": "stereo not shown", "Mtb glucose medium": 3.538, "Mtb cholesterol medium": 2.225}
{"smiles": "[H][C@@]12C[C@@H](C)O[C@]1([H])CN(C(=O)c1cccc3c1OCCO3)C2", "Mtb glucose medium": "-12.87 and 2.023", "Mtb cholesterol medium": 11.73}
{"smiles": "O=C(NCCn1ccc(-c2ccccn2)n1)c1ccncc1", "Mtb glucose medium": "-0.1243 and -8.334", "Mtb cholesterol medium": -16.17}
{"smiles": "O=C(CCCc1ccccc1)Nc1cnc(N2CCOCC2)nc1", "Mtb glucose medium": -22.72, "Mtb cholesterol medium": 17.75}
{"smiles": "CCN1CCN(CC(C)(O)c2cccc(C(F)(F)F)c2)CC1", "stereo": "stereo not shown", "Mtb glucose medium": 23.58, "Mtb cholesterol medium": 3.479}

The last 4 entries again:

SMILES,Mtb glucose medium,Mtb cholesterol medium
[H][C@@]12C[C@@H](C)O[C@]1([H])CN(C(=O)c1cccc3c1OCCO3)C2,-12.87 and 2.023,11.73
O=C(NCCn1ccc(-c2ccccn2)n1)c1ccncc1,-0.1243 and -8.334,-16.17
O=C(CCCc1ccccc1)Nc1cnc(N2CCOCC2)nc1,-22.72,17.75
CCN1CCN(CC(C)(O)c2cccc(C(F)(F)F)c2)CC1 (stereo not shown),23.58,3.479

Data taken from ChEMBL document CHEMBL3988442, “University of Dundee, Small-Polar-MMV Screening Library” (2021).